# Measurements reported in PubChem BioAssay AID1347423 (Functional Genomics Laboratory (NCATS/FGL), 2020).
# In all, about 52,000 sequences went through this assay and about 210 (0.4%) were called active.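 Rule for the calls: active = gene whose silencing raises cell survival under the drug, median off-target-corrected z-score across its silencing RNAs 2 or more; inactive = the rest.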 The list shows a part of the results.
# Test: Resistance to Poly (ADP-Ribose) Polymerase inhibitor: Gene Identification via Genome-wide siRNA Screen
# Conditions: mouse BRCA2 R2336H ES cells, olaparib, CellTiter-Glo viability; hits give high values
# Summary of the method: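 Genome-wide siRNA screen (3 siRNAs/gene, 20 nM) in mouse ES cells carrying hypomorphic BRCA2 R2336H; olaparib 500 nM added 48 h post-transfection, CellTiter-Glo viability 72 h later. Normalized to plate-median negative control; MAD z-scores, gene median, seed-adjusted.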
row,Sequence,z-score
1,CCUAACUGAAUUUUUCGUGTT against Cse1l,inactive: -0.157
2,GGAAUUCAGUGAAUGUCAUTT against 4432404J10Rik,inactive: 2.34
3,GGCUUUGUAUAUCUUAUCGTT against 9030227G01Rik,inactive: 1.82
4,GCUGUCGAUAGAAAAAAUCTT against Scml2,inactive: 0.164
5,GACUUCUUCCUUUGCUAACTT against Cd1d2,inactive: 0.857
6,GGACUGCUACUUUUAUUUUTT against Serpinb9e,inactive: 0.0745
7,GGGCAGUCUGAUAGAGGAUTT against Adam30,inactive: -1.06
8,GGAAUAGGUUGGAUCACAATT against 1110018J18Rik,inactive: 0.795
9,CGUGGAACCUGAAUAAUGATT against Aipl1,inactive: 2.04
10,GGAUGAUCCAAGCAAUUGATT against Adcy2,inactive: -1.6
11,GGACUCUCCCAAGUGCAAUTT against Pla2g10,inactive: 1.05
12,CCCAUACAAAGCACUUACATT against Otub1,inactive: 0.382
13,GGAGGGCAGAUCUACGAUGTT against Aars,inactive: -0.0519
14,GGAUGCUUAUGAGGAAAUATT against 1700019D03Rik,inactive: 0.00975
15,GCAUAAGCCACACCCUCUGTT against Cops7a,inactive: -1.18
16,GGGACUUGUUGGAUGAAACTT against Hemt1,inactive: 0.109
17,CCUACCACAUGGAUGAGUATT against 2610203E10Rik,inactive: 0.642
18,GGUGACUUUCUUUAAUCAGTT against Nt5c,inactive: 0.39
19,GGAAGAGCUGAGAUUCGCCTT against Atf3,inactive: 0.788
20,GGAACUAUGCCUCUCGUAUTT against Th,inactive: -0.523
21,GGGAAUGACUCCACAUUGCTT against Limd1,inactive: -1.54
22,CCCUCUAAAGCAUGAGUGUTT against Phemx,inactive: -0.528
23,GACGGACUGUCCUCUAACGTT against Baalc,inactive: 1.17
24,GCCAAAUGUGCGUCAUCUATT against Zdhhc25,inactive: 1.21
25,CCCUGACCGAAACCCUCGCTT against LOC547349,inactive: 0.629
26,GGACAUCUGGCUAAGGAACTT against 1110051B16Rik,inactive: -0.717

row,Sequence,z-score
1,GGGCUGUACUAAAAACUAATT against Olfr93,inactive: -1.01
2,CGUGCUUUCAUGUUCCCUATT against 1700018O18Rik,inactive: -0.187
3,GCUAGCUGUUGUAAAAGAATT against LOC225594,inactive: -0.799
4,GGAGAGAUGGUGGAUUAUATT against Col13a1,inactive: -0.0479
5,GGAAACAACCAUCGAGGUUTT against Cyp4x1,inactive: -1.39
6,CCGGUUUAACUUCAUCAUGTT against Wdr21,inactive: 0.15
7,GGAAGUGUCUUAGCACCCATT against Zfp330,inactive: 1.11
8,CCUGGUCAAUCGAUUCAUATT against 5330416C01Rik,inactive: -0.336
9,GCCUCUCCUAUCCCAAUUATT against Enpp6,inactive: 3.15
10,GCCUCCUAUCCUGGGAAGATT against Prss3,inactive: -1.14
11,GGUACAAUCUUAUCUGUGGTT against Dsg1a,inactive: -2.54
12,GGCUUUUGGUCUGAGAUGCTT against D11Moh34,inactive: -1.44
13,GGUCAUCGGACAUUAUUUATT against Slc4a10,inactive: -0.0901
14,AGUACACUUGCUCCUUCUGTT against Rpl37a,inactive: -2.55
15,GGUCCAUUAUGACGGCAAATT against Zfp533,inactive: -1.22
16,GGACCAAUGCACAGAAGUATT against 1200003C05Rik,inactive: 1.37
17,GGUGCCCAUGCUUGUAGGATT against 8030411F24Rik,inactive: 0.836
18,CCUUGGAUGUAUUCAUAUATT against Prkar2a,inactive: -0.376
19,GGUGACGAAACUCCUAAAATT against Hars,inactive: 0.275
20,GGAGACAGAAAAGAAGUUGTT against Gpr108,inactive: -0.46
21,GGAGAUUGGAAAAACCAAATT against Zfp74,inactive: -1.35
22,GCACUUUCCUUUAUUGUGUTT against 5730593F17Rik,inactive: 1.2
23,GGCGAAUCUUUCCAACGCGTT against Marco,inactive: 0.301
24,GGCGGAACAAGAUGACUCATT against Arnt2,inactive: 1.41
25,GCUUUACGUCAGGAGAUAATT against Pak3,inactive: -0.838
26,GGUGCAGUUGAUGAUGAUUTT against AV312086,inactive: -2.77

# Three entries picked at random from the list so far, as already listed:
row,Sequence,z-score
21,GGAGAUUGGAAAAACCAAATT against Zfp74,inactive: -1.35
18,CCUUGGAUGUAUUCAUAUATT against Prkar2a,inactive: -0.376
8,CCUGGUCAAUCGAUUCAUATT against 5330416C01Rik,inactive: -0.336

# Further records follow:

row,Sequence,z-score
1,GGCACAGACGGAUCAACAGTT against Clcn3,inactive: -2.27
2,GCUCUACCUUCGCUGGAAATT against Slc7a6,inactive: 0.523
3,GGUUGUUAGAGAUUUGACCTT against Kctd12,inactive: -1.14
4,CCUCCUUACAAGUUGAAGCTT against 5330410G16Rik,inactive: 0.6
5,CGCAACAGCAAAUCAUCAGTT against Ap3s1,inactive: -0.0694
6,GGAAAUACGGCAGAACCCUTT against Kcnk9,inactive: 0.143
7,GGGAAAAGCACGUUCUUGCTT against Arl10a,inactive: -1.66
8,GGAUUAUGGGAGAUAUAAATT against Hapln1,inactive: 0.11
9,GGUACUUCACAAUGGACAGTT against Zcchc9,inactive: -1.25
10,GGAGCAUCCUGUUCUUCUATT against Actr1b,inactive: -1.63
11,GGAAAUUGGUCCAGUUAUUTT against Magee1,inactive: 1.24
12,GAUGAUCUUUUGGAUGAACTT against 4933402P03Rik,inactive: 0.924
13,GGAAGAGGUUUUAUCAGAATT against Atpaf2,inactive: -0.409
14,GGACUACCGAACAAGAGAATT against Zfp318,inactive: 0.11
15,GGACUAACCAGAAUUUUCATT against Kcnc2,inactive: 0.666
16,GGAAUGUGUAUUCCAAAAUTT against Gp2,inactive: -0.01
17,GGGAGGAUGGUGGUAUAACTT against Angptl2,inactive: -0.242
18,GGAAGAGGAGCAAAAGCCATT against Slc34a1,inactive: 1.78
19,GGUUAUGUACCAGCAAAGUTT against AU040950,inactive: 0.132
20,CCGCGUGUUCCUUCUGAUUTT against Edg3,inactive: 0.294
21,GGAGAUAAUUCAUUAUGGCTT against Zfpm2,inactive: 0.784
22,AGCUCACAUCGUACUGAAGTT against 1700030B21Rik,inactive: -0.501
23,CGACUCCAAUCUACAGGUUTT against 4930527D15Rik,inactive: 0.714
24,GGGAAGCAGUAUUUAAUCATT against Hc,inactive: -0.234
25,GCCUCACUUUGACUGUCGCTT against 5730494M16Rik,inactive: 0.656
26,GCUGCAUUCGGUUACCACUTT against 4832415H08Rik,inactive: -1.2

# For reference, some entries already given.
row,Sequence,z-score
6,CCGGUUUAACUUCAUCAUGTT against Wdr21,inactive: 0.15
7,GGAAGUGUCUUAGCACCCATT against Zfp330,inactive: 1.11
8,CCUGGUCAAUCGAUUCAUATT against 5330416C01Rik,inactive: -0.336
9,GCCUCUCCUAUCCCAAUUATT against Enpp6,inactive: 3.15
10,GCCUCCUAUCCUGGGAAGATT against Prss3,inactive: -1.14
11,GGUACAAUCUUAUCUGUGGTT against Dsg1a,inactive: -2.54

# (continued)

row,Sequence,z-score
1,GGCACUUUUUGGAAAAAACTT against Mkrn1,inactive: 1.13
2,GCUAAAGCUAAGAUUGAAGTT against Poli,inactive: 0.346
3,GGAGUUGUGGAAUUCUCUATT against Extl2,inactive: 0.0321
4,GGUCAAAGUUGGAAAUUGCTT against Acbd6,inactive: 0.837
5,GGUCAACAGAAUGAAAAAUTT against Cbfa2t1h,inactive: 0.271
6,GCCAUCAAAGAAUAUGUUUTT against Sf3b3,inactive: -2.43
7,GGACAAGUCCUUUGCUGUGTT against Prkcbp1,inactive: 1.43
8,GAUAUGCAAGGAGGAGGCATT against BC061212,inactive: -1.35
9,GGAUCUAAGGUGAACAAGATT against Rpl3,inactive: -3.62
10,CCCUGGGCAGUUUGCAUGUTT against Dgcr2,inactive: 1.85
11,AACCUCUCCUUCUUAGACATT against Olfr724,inactive: -1.05
12,GGAGAUGUCUGAUGUAACCTT against AW539457,inactive: -0.899
13,GCACGUAGUAAGAUGUUACTT against Rqcd1,active: 2.53
14,GGCGUACAACAACCUACAGTT against Siat7e,inactive: -2.09
15,CGGGUAACUACUAGGAAGGTT against 1700011F03Rik,inactive: 0.504
16,GCACAUUGGCUGUGAGUCATT against Hspa5bp1,inactive: 0.604
17,GGAAUUCAUCUGUUAGAUUTT against BC019943,inactive: 2.59
18,CGUACCACGGAGGACUUAUTT against Dpf3,inactive: -0.596
19,GGAAAUCCUGGGACAGAACTT against Htatip2,inactive: -0.511
20,GGCCAAAUACUGAAUAUUCTT against Ssb,inactive: 0.938
21,GGAGCUCUGAGGCUUAUAGTT against Prop1,inactive: -1.91
22,GGCCAUGAACUGGCAAAGCTT against Erbb2ip,inactive: -0.112
23,GGUGAUACAGAUUCUAGGUTT against 4930546H06Rik,inactive: -0.38
24,CGAAGAGAGCUGCAUUAAATT against C030030A07Rik,inactive: -1.01
25,GGGCUCUGCGCUACUUAAATT against Zfp358,inactive: 1.41
26,GCAACAUUCCAGGGCUGAATT against Dnmt3l,inactive: 0.957
